According to the supplement of paper PMC8732350:
Structures can show the parent of a compound that is named as a salt. ± gives the standard deviation of the averaged measurements. The list shows a part of the results. Most values lie within the scatter of the assay; repeated measurements hardly agree.

System: A549
Assay: surface PD-L1 immunofluorescence intensity relative to IFN-gamma-only control (ratio); higher = more PD-L1 expression
Details: 10 µM; exposure time 24 h; IFN-gamma 100 ng/mL

Row | Compound | surface PD-L1 immunofluorescence intensity
1 | Nc1nc(=O)n([C@@H]2CS[C@H](CO)O2)cc1F [(-)-Emtricitabine] | 0.909
2 | COc1cc(SC)ccc1C(=O)N1CCC(Cc2ccccc2)CC1 | 0.951
3 | CC#C[C@]1(O)CC[C@H]2[C@@H]3CCC4=CC(=O)CCC4=C3[C@@H](c3ccc(N(C)C)cc3)C[C@@]21C [Mifepristone (Mifeprex)] | 0.992
4 | CC#C[C@]1(O)CC[C@H]2[C@@H]3CCC4=CC(=O)CCC4=C3[C@@H](c3ccc(N(C)C)cc3)C[C@@]21C [Mifepristone] | 1.03 ± 0.023
5 | COC(=O)C1=CO[C@@H](O)[C@@H]2C(CO)=CC[C@H]12 [Genipin] | 0.794
6 | Cc1nc(C(=O)NCC(=O)O)c(O)c2ccc(Oc3ccccc3)cc12 | 1.08
7 | CCCOc1ccccc1-c1nc2[nH]nnc2c(=O)[nH]1 [Zaprinast] | 1
8 | CCC[C@@H]1C[C@@H](C(=O)N[C@@H]([C@H]2O[C@H](SC)[C@H](OP(=O)(O)O)[C@@H](O)[C@H]2O)[C@H](C)Cl)N(C)C1 [Clindamycin phosphate] | 1.12
9 | CC(C)[C@H](N)C(=O)OCCOCn1cnc2c(=O)nc(N)[nH]c21 [Valacyclovir hydrochloride] | 1.03
10 | CC(C)N(CC[C@H](c1ccccc1)c1cc(CO)ccc1O)C(C)C | 1.03
11 | CN1CCN2c3ncccc3Cc3ccccc3C2C1 (centres undefined) [Mirtazapine] | 1.02
12 | CN1CCN2c3ncccc3Cc3ccccc3C2C1 (centres undefined) [Mirtazepine] | 0.959
13 | CN(C(=O)CN(CCO)CC(=O)N(C)C(C)(C)Cc1ccccc1)C(C)(C)Cc1ccccc1 [Oxethazaine] | 0.903
14 | COC(=O)N/N=C/c1c[n+]([O-])c2ccccc2[n+]1[O-] [Carbadox] | 1.08
15 | CC1(C)O[C@@H]2C[C@H]3[C@@H]4C[C@H](F)C5=CC(=O)C=C[C@]5(C)[C@@]4(F)[C@@H](O)C[C@]3(C)[C@]2(C(=O)CO)O1 [Fluocinolone acetonide] | 0.912
16 | CC1(C)O[C@@H]2C[C@H]3[C@@H]4C[C@H](F)C5=CC(=O)C=C[C@]5(C)[C@@]4(F)[C@@H](O)C[C@]3(C)[C@]2(C(=O)CO)O1 [Fluocinolone acetonide (Flucort-N)] | 0.82
17 | COc1cc(NS(=O)(=O)c2ccc(N)cc2)ncn1 [Sulfamonomethoxine] | 1.03
18 | Cc1cc(C)nc(NS(=O)(=O)c2ccc(N)cc2)n1 [Sulfamethazine sodium salt] | 0.942
19 | Cc1cc(C)nc(NS(=O)(=O)c2ccc(N)cc2)n1 [Sulfamethazine] | 1.02
20 | Cc1ccc(OCC(O)C(C)NC(C)C)c2c1CCC2 (centres undefined) [ICI-118,551 hydrochloride] | 0.845
21 | CCn1c(=O)c2c(nc(/C=C/c3ccc(OC)c(OC)c3)n2C)n(CC)c1=O [Istradefylline (KW-6002)] | 1.01
22 | CCCn1c(=O)c(C)cn2nc(N)nc12 | 1.02
23 | CC1=NN(c2ccc(C)c(C)c2)C(=O)/C1=N\Nc1cccc(-c2cccc(C(=O)O)c2)c1O | 0.971
24 | c1ccc2cc(C3=NCCN3)ncc2c1 [BU 226 hydrochloride] | 0.989
25 | C[C@@H]1C/C=C/C=C/C=C/C=C/[C@H](O[C@@H]2O[C@H](C)[C@@H](O)[C@H](N)[C@@H]2O)C[C@@H]2O[C@](O)(C[C@@H](O)C[C@H]3O[C@@H]3/C=C/C(=O)O1)C[C@H](O)[C@H]2C(=O)O [Natamycin (Pimaricin)] | 1.08

Some of the entries so far, comma-delimited:
Row,Compound,surface PD-L1 immunofluorescence intensity
21,CCn1c(=O)c2c(nc(/C=C/c3ccc(OC)c(OC)c3)n2C)n(CC)c1=O [Istradefylline (KW-6002)],1.01
22,CCCn1c(=O)c(C)cn2nc(N)nc12,1.02

For convenience, some entries already given.
Row | Compound | surface PD-L1 immunofluorescence intensity
2 | COc1cc(SC)ccc1C(=O)N1CCC(Cc2ccccc2)CC1 | 0.951
3 | CC#C[C@]1(O)CC[C@H]2[C@@H]3CCC4=CC(=O)CCC4=C3[C@@H](c3ccc(N(C)C)cc3)C[C@@]21C [Mifepristone (Mifeprex)] | 0.992

Going on with the list:

Row | Compound | surface PD-L1 immunofluorescence intensity
26 | CC(C(O)c1ccc(O)cc1)N1CCC(Cc2ccccc2)CC1 (centres undefined) [Ifenprodil tartrate] | 0.988
27 | CC(C(O)c1ccc(O)cc1)N1CCC(Cc2ccccc2)CC1 (centres undefined) [Ifenprodil hemitartrate] | 1.01
28 | O=C(/C=C/c1ccc(O)c(O)c1)O[C@H](Cc1ccc(O)c(O)c1)C(=O)O [Rosmarinic acid] | 0.973 ± 0.044
29 | C1CCC(N=C(NC23CC4CC(CC(C4)C2)C3)N2CCOCC2)CC1 | 0.963
30 | COC(=O)[C@H](Cc1ccccc1)NC(=O)[C@@H](N)CC(=O)O [Aspartame] | 1.15
31 | NC(=O)N/N=C/c1ccc(Oc2ccc(F)cc2)cc1 | 0.939
32 | C[C@]12CC[C@@H]3c4ccc(O)cc4C[C@@H](CCCCCCCCC[S+]([O-])CCCC(F)(F)C(F)(F)F)[C@H]3[C@@H]1CC[C@@H]2O (some centres undefined) [Fulvestrant (Faslodex)] | 1.22
33 | C[C@]12CC[C@@H]3c4ccc(O)cc4C[C@@H](CCCCCCCCC[S+]([O-])CCCC(F)(F)C(F)(F)F)[C@H]3[C@@H]1CC[C@@H]2O (some centres undefined) [Fulvestrant] | 1.04 ± 0.26
34 | COc1cc(CNC(=O)CCCC/C=C/C(C)C)ccc1O [Capsaicin] | 1.016 ± 0.0093
35 | CO/N=C(\C(=O)N[C@@H]1C(=O)N2C(C(=O)O)=C(COC(C)=O)CS[C@H]12)c1csc(N)n1 [Cefotaxime sodium salt] | 0.937
36 | C=C[C@](C)(O)CC[C@@H]1[C@@]2(C)CCCC(C)(C)[C@@H]2CC[C@@]1(C)O [Sclareol] | 1.06
37 | COC1CCC(C(=O)c2ccc3nc4c(cc3c2)CCCO4)CC1 (centres undefined) | 0.906
38 | Clc1ccc2nsnc2c1NC1=NCCN1 [Tizanidine HCl] | 1.04
39 | Clc1ccc2nsnc2c1NC1=NCCN1 [Tizanidine hydrochloride] | 1.01
40 | Cc1cc2cc3c(C)cc(=O)oc3c(C)c2o1 [Trioxsalen] | 1
41 | CC(=O)Nc1nnc(S(N)(=O)=O)s1 [Acetazolamide] | 0.85
42 | Nc1nc(OCc2cc(Br)cs2)c2[nH]cnc2n1 [Lomeguatrib] | 0.864
43 | CCCCOc1ccc(C(=O)Nc2ccc(F)cc2F)cc1 | 0.975
44 | CC(C)Oc1ccc2c(=O)c(-c3ccccc3)coc2c1 [Ipriflavone] | 1.01
45 | Cc1cc(C(C)Nc2ccccc2)c2nc(N3CCOCC3)cc(=O)n2c1 (centres undefined) | 0.957
46 | CC(C)c1ccccc1S(=O)(=O)c1cc(N)c2ncccc2c1[N+](=O)[O-] | 0.995
47 | CCOC(=O)C1=C(N)Oc2ccc(Br)cc2C1C(C#N)C(=O)OCC (centres undefined) | 1.05 ± 0.08
48 | CCCCOc1cc(C(=O)OCCN(CC)CC)ccc1N [Benoxinate hydrochloride] | 0.937
49 | CC(=O)Nc1c(I)c(C(=O)N[C@H]2C(O)O[C@H](CO)[C@@H](O)[C@@H]2O)c(I)c(N(C)C(C)=O)c1I (some centres undefined) [Metrizamide] | 1.08
